Assay results reported in paper PMC7456325.
Results are given in words; binding and its absence hold for the method and conditions named. Binding seen in cells or lysates may run through a third protein. Some binding calls cover weakened binding; strength is not graded here. Sequences can lack the tags named with a protein.

Chains of the proteins cited; added tags and fusions are not shown.
UniProt P97287: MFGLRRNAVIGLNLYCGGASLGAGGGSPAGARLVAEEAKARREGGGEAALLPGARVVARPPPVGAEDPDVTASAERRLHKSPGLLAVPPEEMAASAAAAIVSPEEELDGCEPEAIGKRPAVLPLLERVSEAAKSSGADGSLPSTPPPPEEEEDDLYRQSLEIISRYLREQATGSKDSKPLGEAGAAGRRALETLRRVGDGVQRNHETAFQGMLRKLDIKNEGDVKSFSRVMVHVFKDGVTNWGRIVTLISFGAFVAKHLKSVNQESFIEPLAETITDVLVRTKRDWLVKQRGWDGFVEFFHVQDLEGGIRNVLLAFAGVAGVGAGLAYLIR

Biological target: T1, HA-BAK (human) (UniProt Q16611)
T1 sequence: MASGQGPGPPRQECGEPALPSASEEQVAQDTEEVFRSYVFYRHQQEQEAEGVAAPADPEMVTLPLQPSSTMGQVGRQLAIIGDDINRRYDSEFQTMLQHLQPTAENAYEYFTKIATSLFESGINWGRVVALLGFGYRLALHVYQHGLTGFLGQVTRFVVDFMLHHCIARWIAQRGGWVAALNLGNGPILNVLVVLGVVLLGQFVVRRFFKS
Test: co-IP; lysates of Bax-/-/Bak-/- MEF in 20 mM Tris pH 7.4, 135 mM NaCl, 1.5 mM MgCl2, 1 mM EGTA, 10% glycerol with 1% Triton X-100; anti-HA or anti-FLAG agarose, 1 h at 4 °C, four washes; western blot

Substance: endogenous MCL-1 (from UniProt P97287 1-331)
- binding: binds
